Laboratory results: doi:10.1101/2024.08.19.608612
No constants are given. Whether binding was seen depends on the method and setting. Binding seen in cells or lysates may run through a third protein. Here binding means that the protein was enriched with, or labelled near, the bait; the list need not be complete. For some assays here: Where a sequence is shown, tags or fusion partners need not be part of it.

Amino acid sequences for entries named in this document (tags omitted).
UniProt Q9HC16: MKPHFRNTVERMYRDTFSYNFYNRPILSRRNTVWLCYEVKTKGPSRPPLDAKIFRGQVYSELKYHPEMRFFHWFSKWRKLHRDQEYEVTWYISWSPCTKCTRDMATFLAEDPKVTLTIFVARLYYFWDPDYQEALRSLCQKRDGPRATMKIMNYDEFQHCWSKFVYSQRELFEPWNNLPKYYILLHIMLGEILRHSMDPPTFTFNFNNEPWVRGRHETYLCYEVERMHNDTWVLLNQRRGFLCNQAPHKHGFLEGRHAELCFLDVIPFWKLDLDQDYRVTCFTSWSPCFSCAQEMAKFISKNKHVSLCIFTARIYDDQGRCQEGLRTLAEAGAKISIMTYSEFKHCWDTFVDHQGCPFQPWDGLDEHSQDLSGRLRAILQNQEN
UniProt O43143: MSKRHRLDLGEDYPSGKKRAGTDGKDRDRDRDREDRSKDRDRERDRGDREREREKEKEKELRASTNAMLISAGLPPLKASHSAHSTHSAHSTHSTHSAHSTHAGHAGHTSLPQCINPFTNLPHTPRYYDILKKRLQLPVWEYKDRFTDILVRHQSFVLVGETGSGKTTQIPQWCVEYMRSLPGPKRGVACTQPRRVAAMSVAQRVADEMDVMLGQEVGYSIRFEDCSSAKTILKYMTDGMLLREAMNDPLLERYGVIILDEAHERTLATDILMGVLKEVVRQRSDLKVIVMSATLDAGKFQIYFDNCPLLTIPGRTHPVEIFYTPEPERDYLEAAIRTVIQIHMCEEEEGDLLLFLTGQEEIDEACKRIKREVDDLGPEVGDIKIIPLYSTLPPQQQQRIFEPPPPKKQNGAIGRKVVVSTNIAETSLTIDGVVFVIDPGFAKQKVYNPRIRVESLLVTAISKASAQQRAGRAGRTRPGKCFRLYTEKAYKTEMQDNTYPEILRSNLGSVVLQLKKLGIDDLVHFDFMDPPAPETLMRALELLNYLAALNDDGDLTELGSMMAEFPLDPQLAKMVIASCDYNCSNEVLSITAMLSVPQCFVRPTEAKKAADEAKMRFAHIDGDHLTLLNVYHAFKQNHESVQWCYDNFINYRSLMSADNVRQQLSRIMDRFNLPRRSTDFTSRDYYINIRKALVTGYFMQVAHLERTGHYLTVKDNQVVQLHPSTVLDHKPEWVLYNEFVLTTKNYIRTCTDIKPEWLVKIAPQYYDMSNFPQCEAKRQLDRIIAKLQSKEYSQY
UniProt P67809: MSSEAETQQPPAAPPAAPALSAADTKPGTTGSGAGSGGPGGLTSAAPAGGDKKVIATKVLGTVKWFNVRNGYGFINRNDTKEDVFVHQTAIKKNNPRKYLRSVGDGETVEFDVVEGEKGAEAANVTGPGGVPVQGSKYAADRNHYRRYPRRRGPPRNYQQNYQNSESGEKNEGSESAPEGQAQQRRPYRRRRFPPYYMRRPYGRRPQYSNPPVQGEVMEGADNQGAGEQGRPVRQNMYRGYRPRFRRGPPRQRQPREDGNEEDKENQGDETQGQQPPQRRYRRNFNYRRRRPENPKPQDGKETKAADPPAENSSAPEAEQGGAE

What was measured:
[1] = target: T1, FLAG-tagged mouse APOBEC3 (pcDNA-FLAG-mA3) (mouse) (UniProt Q99J72); test: affinity purification with mass spectrometry
T1 sequence: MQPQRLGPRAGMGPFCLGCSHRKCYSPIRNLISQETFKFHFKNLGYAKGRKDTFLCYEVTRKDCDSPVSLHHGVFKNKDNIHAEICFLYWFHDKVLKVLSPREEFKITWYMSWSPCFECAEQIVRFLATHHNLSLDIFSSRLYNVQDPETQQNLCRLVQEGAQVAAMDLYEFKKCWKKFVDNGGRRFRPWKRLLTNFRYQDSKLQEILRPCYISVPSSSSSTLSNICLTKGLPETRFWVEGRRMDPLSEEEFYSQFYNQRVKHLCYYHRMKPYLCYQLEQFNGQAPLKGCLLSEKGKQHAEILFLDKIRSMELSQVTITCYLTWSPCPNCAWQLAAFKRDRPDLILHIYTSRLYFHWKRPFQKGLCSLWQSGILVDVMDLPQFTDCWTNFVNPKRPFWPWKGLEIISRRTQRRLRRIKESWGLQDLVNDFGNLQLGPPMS

[2] = target: FLAG-tagged human APOBEC3G (human) (UniProt Q9HC16); test: affinity purification with mass spectrometry

Row | Substance | binding [1] | binding [2]
1 | DEAH-box helicase 15 (DHX15), endogenous in 293T cells (from UniProt O43143 1-795) | binds | –
2 | Y-box binding protein 1 (YB1), endogenous in 293T cells (from UniProt P67809 1-324) | binds | binds
3 | hnRNPK, endogenous in 293T cells (from UniProt P61978 1-463) | binds | binds
